{"source": "patent US20110294874A1", "about": "“DIAGNOSIS AND THERAPY OF ORGAN DYSFUNCTION USING SPHINGANINE-1-PHOSPHATE” (The Trustees of Columbia University in the City of New York, priority 2008, published 2011)", "type_in_all_cases": "in vivo, mouse", "key": {"[1]": {"test_system": "C57BL/6 mice subjected to liver IR", "test": "Liver H&E histology after liver IR (percent necrosis, Suzuki score)", "details": "pre-treatment prior to Sg1P treatment", "procedure": "Mice were anesthetized with intraperitoneal pentobarbital (50 mg/kg or to effect). Mice were placed under a heating lamp and on a 37° C. heating pad. After a midline laparotomy and intraperitoneal application of 20 U heparin, left lateral and median lobes of the liver were subjected to ischemia with a microaneurysm clip occluding the hepatic triad above the bifurcation. This method of partial hepatic ischemia results in a segmental (˜70%) hepatic ischemia but spares the right lobe of the liver and prevents mesenteric venous congestion by allowing portal decompression throughout the right and caudate lobes of the liver. The liver was then repositioned in the peritoneal cavity in its original location for 60 minutes. The liver was kept moist with gauze soaked in 0.9% normal saline. The body temperature was monitored by an infrared temperature sensor (Linear Laboratories, Fremont, Calif.) every 10 min. and maintained at 37° C. using a heating lamp and a heating pad. After 60 minutes, the liver was reperfused and the wound closed. Sham-operated mice were subjected to laparotomy and identical liver manipulations without vascular occlusion. […]\nLivers were also analyzed for the degree of hepatocellular damage using the Suzuki's criteria (Suzuki et al., Transplantation 1993, Vol. 55, pp. 1265-1272). […]"}, "[2]": {"test_system": "C57BL/6 mice subjected to liver IR", "test": "Murine model of liver ischemia reperfusion (hepatic IR): plasma ALT and creatinine", "details": "given prior to Sg1P treatment; serum creatinine and ALT"}, "[3]": {"test_system": "C57BL/6 mice subjected to liver IR", "test": "Kidney H&E histology after liver IR", "details": "pre-treatment prior to Sg1P", "source_text": "Liver IR-induced AKI in mice shared similar histological changes observed in human AKI associated with liver failure, as observed in H&E slides of kidney sections taken from the mice (see FIG. 3). Multifocal acute tubular injury including individual cell necrosis involving the juxtamedullary proximal tubules of the S3 segment was observed. […] Endothelial apoptosis of peritubular capillaries was also visible in H&E sections as linear arrays of apoptotic bodies corresponding to the interstitial capillary lining endothelium. […] The number of glomeruli with detectable juxtaglomerular apparatus and the number of cells per juxtaglomerular apparatus were both increased after liver IR, indicating hyperplasia of the juxtaglomerular apparatus. […] Liver IR produced large necrotic areas of liver tissue. The average percentage of necrotic areas in liver samples taken from liver IR mice were 92%±2% (n=6), while no necrosis was found in sham-operated mice. Livers were also analyzed for the degree of hepatocellular damage."}}, "note": "At least one compound was matched to its structure with a doubt left."}
{"smiles": "COC[C@H]1OC(=O)c2coc3c2[C@@]1(C)C1=C(C3=O)[C@@H]2CCC(=O)[C@@]2(C)C[C@H]1OC(C)=O", "note": "[wortmannin]", "values": [{"measurement": "Necrotic areas in the liver after IR", "setting": "[1]", "value": "increased significantly"}, {"measurement": "Effect of pre-treatment on Sg1P-mediated renal and hepatic protection after liver IR", "setting": "[2]", "value": "prevented"}, {"measurement": "Effect of pre-treatment on protective effects of Sg1P on renal histology", "setting": "[3]", "value": "reduced the protective effects"}]}
